Literature values as cited in US20120015063A1, “COMPOSITION FOR TREATMENT AND/OR PREVENTION OF SKIN DISORDER” (priority 2009, published 2012).
At least one compound was matched to its structure with a doubt left.

Settings: cited from earlier work

SMILES: COc1c(O)cc2oc3cc(O)c(CC=C(C)C)c(O)c3c(=O)c2c1CC=C(C)C [α-mangostin]
- effect on oxidation of lipids: reducing effect on oxidation of lipids
